The other results are listed elsewhere or left out.
Legend:
Experiment in all cases: log2 fold change, soluble protein after heating vs DMSO (PISA); higher = thermal stabilisation; K562 lysate, 10 uM; active = over 0.2 and 3.5 SD of the protein, either way, in both replicates (recomputed)
[1] = compound: NCC(=O)Nc1ccc(-n2nc(C(F)(F)F)cc2-c2ccc3c(ccc4ccccc43)c2)cc1
Method in brief: (§1)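 Soluble protein was defined as the supernatant remaining after 21,000xg for 90 min, following pooling of heated aliquots and adjustment to 0.5% NP-40 at 4°C. Before that, crude K562 extract at 1 mg/mL protein in PBS pH 7.4 with 1 mM MgCl2 was treated with 10 μM compound for 30 min and heated for 3 min across 48°C-58°C. Quantification used TMTpro 16plex LC-MS/MS with channel sums equalised, and values are log-two fold changes in thermal stability relative to solvent controls from duplicates.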

Sequences of proteins named here, by UniProt entry; tags and fusion partners are left off. A change or cut given only in a name is not applied to a line headed by its entry.
UniProt O14656: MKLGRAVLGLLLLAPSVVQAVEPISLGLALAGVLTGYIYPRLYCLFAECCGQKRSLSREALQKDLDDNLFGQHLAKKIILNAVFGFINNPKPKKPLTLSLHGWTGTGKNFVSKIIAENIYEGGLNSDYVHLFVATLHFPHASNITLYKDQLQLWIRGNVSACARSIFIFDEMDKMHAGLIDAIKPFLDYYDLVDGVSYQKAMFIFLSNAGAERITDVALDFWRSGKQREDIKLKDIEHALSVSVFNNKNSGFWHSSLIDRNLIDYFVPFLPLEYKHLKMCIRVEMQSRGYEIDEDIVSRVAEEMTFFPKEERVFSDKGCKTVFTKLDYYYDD
UniProt A0PJW6: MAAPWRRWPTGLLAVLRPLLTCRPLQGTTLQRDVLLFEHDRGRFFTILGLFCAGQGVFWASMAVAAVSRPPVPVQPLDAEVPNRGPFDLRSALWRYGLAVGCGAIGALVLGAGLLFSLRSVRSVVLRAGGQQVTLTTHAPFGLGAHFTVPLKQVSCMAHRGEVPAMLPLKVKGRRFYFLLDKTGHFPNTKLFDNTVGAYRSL
UniProt Q9BVT8: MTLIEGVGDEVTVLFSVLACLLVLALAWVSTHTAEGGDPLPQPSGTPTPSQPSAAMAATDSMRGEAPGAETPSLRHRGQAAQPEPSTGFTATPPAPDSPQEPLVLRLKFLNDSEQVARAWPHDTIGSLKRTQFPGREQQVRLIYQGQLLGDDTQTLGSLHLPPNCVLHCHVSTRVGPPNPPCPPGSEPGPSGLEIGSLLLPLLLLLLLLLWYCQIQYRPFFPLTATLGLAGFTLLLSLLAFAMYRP
UniProt Q6ZVM7: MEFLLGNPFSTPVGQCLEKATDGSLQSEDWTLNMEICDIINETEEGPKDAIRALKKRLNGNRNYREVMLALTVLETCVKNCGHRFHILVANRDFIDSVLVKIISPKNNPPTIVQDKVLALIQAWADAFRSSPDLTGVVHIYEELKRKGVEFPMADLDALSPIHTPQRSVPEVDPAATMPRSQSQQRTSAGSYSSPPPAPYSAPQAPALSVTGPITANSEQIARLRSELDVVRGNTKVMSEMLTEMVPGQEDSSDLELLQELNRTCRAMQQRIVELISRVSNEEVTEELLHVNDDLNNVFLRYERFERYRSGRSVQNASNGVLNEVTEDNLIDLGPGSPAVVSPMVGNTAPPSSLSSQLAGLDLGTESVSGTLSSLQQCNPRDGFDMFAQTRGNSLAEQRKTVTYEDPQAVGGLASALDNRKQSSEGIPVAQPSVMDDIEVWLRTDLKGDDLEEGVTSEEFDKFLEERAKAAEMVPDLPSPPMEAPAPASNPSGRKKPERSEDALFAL
UniProt Q9NVH6: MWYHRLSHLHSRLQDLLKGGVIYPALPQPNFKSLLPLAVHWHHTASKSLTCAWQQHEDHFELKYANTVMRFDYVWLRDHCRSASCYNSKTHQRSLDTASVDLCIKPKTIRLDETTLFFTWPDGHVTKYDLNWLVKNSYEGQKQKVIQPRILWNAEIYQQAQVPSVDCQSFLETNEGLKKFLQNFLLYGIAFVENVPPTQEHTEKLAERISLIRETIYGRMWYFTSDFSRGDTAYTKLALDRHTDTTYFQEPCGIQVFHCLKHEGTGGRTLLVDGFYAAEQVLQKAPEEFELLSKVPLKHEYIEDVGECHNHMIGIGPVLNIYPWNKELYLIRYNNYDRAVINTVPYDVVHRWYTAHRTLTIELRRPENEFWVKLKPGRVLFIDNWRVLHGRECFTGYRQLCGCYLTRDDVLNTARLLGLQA
UniProt Q9UKE5: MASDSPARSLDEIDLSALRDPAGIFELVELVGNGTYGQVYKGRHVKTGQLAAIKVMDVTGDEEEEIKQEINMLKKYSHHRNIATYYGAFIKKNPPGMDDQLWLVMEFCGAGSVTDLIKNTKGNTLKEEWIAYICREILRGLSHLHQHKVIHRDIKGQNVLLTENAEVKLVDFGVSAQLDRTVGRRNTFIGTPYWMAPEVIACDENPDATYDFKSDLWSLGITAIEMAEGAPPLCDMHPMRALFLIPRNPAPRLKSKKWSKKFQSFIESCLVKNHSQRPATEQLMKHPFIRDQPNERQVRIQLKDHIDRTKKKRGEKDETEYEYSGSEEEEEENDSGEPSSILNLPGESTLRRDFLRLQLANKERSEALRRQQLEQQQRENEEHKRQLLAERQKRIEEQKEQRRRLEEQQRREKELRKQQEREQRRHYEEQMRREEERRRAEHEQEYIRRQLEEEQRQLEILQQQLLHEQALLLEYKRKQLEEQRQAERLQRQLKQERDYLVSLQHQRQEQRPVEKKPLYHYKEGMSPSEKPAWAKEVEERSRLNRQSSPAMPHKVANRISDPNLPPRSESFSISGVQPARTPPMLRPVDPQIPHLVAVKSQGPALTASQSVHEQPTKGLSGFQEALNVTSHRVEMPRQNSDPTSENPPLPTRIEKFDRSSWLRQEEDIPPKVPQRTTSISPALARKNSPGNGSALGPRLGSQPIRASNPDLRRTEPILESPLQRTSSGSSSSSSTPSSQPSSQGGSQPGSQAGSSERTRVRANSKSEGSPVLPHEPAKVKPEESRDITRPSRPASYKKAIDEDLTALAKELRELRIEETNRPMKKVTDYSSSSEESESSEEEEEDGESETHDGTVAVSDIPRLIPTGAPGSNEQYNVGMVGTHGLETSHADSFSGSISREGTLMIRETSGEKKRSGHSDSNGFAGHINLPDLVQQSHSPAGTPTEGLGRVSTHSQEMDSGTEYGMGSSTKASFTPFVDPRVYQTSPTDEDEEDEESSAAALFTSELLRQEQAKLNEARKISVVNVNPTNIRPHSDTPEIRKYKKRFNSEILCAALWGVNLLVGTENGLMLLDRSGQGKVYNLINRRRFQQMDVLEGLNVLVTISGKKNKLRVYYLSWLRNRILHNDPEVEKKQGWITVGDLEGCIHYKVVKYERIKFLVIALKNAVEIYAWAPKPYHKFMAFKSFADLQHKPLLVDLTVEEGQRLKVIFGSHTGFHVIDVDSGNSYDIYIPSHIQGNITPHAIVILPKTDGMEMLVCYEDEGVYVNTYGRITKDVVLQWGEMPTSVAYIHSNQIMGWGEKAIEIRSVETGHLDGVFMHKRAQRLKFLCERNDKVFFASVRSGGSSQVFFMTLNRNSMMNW
UniProt Q92973: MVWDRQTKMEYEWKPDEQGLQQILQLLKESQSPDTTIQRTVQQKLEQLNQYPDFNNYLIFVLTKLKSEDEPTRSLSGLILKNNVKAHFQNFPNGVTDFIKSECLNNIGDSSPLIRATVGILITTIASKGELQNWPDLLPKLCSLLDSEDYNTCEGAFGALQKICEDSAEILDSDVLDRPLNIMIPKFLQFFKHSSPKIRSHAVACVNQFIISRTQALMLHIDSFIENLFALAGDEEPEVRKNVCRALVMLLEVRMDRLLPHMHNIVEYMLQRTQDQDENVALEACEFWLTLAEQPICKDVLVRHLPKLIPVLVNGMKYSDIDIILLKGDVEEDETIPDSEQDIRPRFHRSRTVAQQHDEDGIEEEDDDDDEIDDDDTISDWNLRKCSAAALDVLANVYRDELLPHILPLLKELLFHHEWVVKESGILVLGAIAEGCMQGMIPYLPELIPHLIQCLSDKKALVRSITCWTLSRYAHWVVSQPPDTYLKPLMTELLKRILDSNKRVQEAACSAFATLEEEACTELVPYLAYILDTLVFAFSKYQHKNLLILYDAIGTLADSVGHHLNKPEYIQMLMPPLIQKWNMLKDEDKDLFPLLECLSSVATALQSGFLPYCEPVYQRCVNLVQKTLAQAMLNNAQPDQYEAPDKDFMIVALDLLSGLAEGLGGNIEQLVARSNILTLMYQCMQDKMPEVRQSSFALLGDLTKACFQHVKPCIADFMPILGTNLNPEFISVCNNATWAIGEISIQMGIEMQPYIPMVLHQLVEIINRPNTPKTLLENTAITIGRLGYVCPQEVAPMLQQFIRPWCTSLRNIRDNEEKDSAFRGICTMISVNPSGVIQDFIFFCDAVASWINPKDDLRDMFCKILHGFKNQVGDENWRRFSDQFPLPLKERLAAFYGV
UniProt P06753, whole entry, looked up: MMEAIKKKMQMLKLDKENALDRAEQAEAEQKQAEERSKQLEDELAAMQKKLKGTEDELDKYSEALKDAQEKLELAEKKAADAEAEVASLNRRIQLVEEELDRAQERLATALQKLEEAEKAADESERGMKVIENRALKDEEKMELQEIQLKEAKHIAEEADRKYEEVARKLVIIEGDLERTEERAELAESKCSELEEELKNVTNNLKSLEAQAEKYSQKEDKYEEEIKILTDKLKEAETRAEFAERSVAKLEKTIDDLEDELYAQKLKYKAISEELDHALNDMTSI
UniProt Q9H497: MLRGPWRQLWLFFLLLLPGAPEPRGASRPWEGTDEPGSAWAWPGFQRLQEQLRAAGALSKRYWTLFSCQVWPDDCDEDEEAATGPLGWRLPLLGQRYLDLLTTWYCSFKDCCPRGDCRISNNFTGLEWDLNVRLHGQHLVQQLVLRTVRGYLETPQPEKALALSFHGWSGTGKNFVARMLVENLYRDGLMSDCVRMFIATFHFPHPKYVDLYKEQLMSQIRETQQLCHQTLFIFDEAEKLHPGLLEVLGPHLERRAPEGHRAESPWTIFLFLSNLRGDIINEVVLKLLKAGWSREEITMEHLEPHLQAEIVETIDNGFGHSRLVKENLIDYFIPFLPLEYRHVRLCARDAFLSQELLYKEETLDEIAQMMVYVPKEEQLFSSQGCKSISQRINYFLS
UniProt P57088: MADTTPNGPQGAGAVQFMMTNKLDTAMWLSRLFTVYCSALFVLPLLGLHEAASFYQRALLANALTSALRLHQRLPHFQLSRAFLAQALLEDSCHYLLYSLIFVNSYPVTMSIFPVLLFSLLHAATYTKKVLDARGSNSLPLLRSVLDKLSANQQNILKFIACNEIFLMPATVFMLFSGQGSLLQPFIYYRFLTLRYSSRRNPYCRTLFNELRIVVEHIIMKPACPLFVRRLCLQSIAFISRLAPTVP
UniProt Q8NBN3: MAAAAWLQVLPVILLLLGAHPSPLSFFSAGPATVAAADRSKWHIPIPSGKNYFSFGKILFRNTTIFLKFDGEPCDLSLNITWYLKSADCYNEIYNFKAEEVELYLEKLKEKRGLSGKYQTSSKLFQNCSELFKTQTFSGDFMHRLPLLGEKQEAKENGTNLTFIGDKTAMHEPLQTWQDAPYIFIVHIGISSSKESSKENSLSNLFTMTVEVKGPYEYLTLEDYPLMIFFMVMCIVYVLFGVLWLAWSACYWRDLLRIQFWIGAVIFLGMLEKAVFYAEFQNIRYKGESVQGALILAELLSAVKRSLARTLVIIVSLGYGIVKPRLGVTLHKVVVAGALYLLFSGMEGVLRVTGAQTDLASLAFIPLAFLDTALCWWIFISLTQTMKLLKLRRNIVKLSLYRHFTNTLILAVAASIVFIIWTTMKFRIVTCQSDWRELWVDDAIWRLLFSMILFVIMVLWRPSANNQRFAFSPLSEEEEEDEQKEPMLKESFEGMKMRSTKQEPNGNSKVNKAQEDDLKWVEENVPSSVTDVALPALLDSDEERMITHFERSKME
UniProt Q5BJF2, whole entry, looked up: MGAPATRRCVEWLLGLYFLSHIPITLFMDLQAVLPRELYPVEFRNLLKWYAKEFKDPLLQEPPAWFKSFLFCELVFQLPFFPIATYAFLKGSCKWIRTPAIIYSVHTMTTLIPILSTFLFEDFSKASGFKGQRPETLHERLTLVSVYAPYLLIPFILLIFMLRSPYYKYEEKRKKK
UniProt Q96A57: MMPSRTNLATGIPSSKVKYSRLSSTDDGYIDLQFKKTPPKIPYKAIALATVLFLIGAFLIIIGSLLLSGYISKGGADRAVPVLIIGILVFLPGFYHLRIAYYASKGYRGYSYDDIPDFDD
UniProt P09493, whole entry, looked up: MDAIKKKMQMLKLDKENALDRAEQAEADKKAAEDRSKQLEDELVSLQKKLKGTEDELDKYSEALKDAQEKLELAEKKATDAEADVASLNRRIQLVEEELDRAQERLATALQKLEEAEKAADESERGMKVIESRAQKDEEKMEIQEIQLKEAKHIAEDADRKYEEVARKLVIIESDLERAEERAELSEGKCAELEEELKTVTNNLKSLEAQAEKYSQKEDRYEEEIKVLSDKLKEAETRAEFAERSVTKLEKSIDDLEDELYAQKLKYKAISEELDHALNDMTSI
UniProt Q9NS69: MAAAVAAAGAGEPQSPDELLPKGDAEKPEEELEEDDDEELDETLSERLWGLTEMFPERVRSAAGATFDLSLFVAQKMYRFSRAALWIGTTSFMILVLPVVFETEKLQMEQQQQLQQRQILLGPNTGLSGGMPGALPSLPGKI
UniProt Q13641: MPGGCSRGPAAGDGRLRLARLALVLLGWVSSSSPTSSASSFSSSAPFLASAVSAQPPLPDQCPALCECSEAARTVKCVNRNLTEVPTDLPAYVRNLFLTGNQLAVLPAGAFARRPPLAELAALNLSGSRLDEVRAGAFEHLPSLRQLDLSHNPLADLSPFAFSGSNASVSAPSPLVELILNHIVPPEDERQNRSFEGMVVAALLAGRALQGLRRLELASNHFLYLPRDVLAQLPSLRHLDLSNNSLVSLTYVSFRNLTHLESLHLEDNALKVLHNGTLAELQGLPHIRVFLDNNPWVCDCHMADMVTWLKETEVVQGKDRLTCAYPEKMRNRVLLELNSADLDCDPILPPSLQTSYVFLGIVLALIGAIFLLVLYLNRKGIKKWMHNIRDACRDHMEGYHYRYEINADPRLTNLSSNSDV

vorinostat = compound: O=C(CCCCCCC(=O)Nc1ccccc1)NO [vorinostat]
Method in brief: as §1

silmitasertib = compound: O=C(O)c1ccc2c(c1)nc(Nc1cccc(Cl)c1)c1ccncc12 [silmitasertib]
Method in brief: as §1

[2] = compound: O=C1NC(=O)C(c2cnc3ccccn23)=C1c1cn2c3c(cc(F)cc13)CN(C(=O)N1CCCCC1)CC2
Method in brief: as §1

entospletinib = compound: c1cn2cc(-c3ccc4cn[nH]c4c3)nc(Nc3ccc(N4CCOCC4)cc3)c2n1 [entospletinib]
Method in brief: as §1

Measured: log2 fold change

TNFRSF10A (UniProt O00220)
inactive: [1] -0.003 | vorinostat 0.086 | silmitasertib 0.009 | [2] -0.01 | entospletinib 0.05

TNKS (UniProt O95271)
inactive: [1] -0.009 | vorinostat -0.1 | silmitasertib 0.06 | [2] -0.001 | entospletinib -0.085

TOR1A (UniProt O14656)
inactive: [1] -0.007 | vorinostat 0.11 | silmitasertib -0.019 | [2] -0.009 | entospletinib 0.002

TMEM223 (UniProt A0PJW6)
inactive: [1] -0.064 | vorinostat -0.22 | silmitasertib 0.105 | [2] -0.193 | entospletinib -0.159

TOPBP1 (UniProt Q92547)
active: vorinostat -0.387
inactive: [1] 0.032 | silmitasertib 0.019 | [2] -0.074 | entospletinib 0.028

TMUB1 (UniProt Q9BVT8)
inactive: [1] -0.128 | vorinostat 0.075 | silmitasertib -0.128 | [2] 0.029 | entospletinib 0.049

TOM1L2 (UniProt Q6ZVM7)
inactive: [1] -0.029 | vorinostat 0.059 | silmitasertib -0.013 | [2] -0.006 | entospletinib 0.017

TMLHE isoform 8 (UniProt Q9NVH6)
inactive: [1] 0.018 | vorinostat -0.117 | silmitasertib -0.002 | [2] 0.055 | entospletinib -0.048

TNIK isoform 4 (UniProt Q9UKE5)
inactive: [1] -0.019 | vorinostat -0.135 | silmitasertib 0.004 | [2] -0.114 | entospletinib 0.208

TNPO1 (UniProt Q92973)
inactive: [1] -0.024 | vorinostat -0.169 | silmitasertib 0.008 | [2] 0.005 | entospletinib 0.039

TPT1 (UniProt P13693)
inactive: [1] 0.034 | vorinostat 0.124 | silmitasertib -0.02 | [2] 0.002 | entospletinib -0.011

TPM3 isoform 3 (UniProt P06753)
inactive: [1] -0.111 | vorinostat 0.048 | silmitasertib -0.047 | [2] -0.15 | entospletinib -0.024

5 neighbouring entries from above, for reference:
TMEM223 (UniProt A0PJW6)
inactive: [1] -0.064 | vorinostat -0.22 | silmitasertib 0.105 | [2] -0.193 | entospletinib -0.159

TOPBP1 (UniProt Q92547)
active: vorinostat -0.387
inactive: [1] 0.032 | silmitasertib 0.019 | [2] -0.074 | entospletinib 0.028

TMUB1 (UniProt Q9BVT8)
inactive: [1] -0.128 | vorinostat 0.075 | silmitasertib -0.128 | [2] 0.029 | entospletinib 0.049

TOM1L2 (UniProt Q6ZVM7)
inactive: [1] -0.029 | vorinostat 0.059 | silmitasertib -0.013 | [2] -0.006 | entospletinib 0.017

TMLHE isoform 8 (UniProt Q9NVH6)
inactive: [1] 0.018 | vorinostat -0.117 | silmitasertib -0.002 | [2] 0.055 | entospletinib -0.048

Next results.

TOR3A (UniProt Q9H497)
inactive: [1] 0.011 | vorinostat 0.048 | silmitasertib -0.002 | [2] -0.016 | entospletinib 0.02

TMEM33 (UniProt P57088)
inactive: [1] -0.039 | vorinostat 0.014 | silmitasertib -0.024 | [2] -0.05 | entospletinib 0.017

TMEM87A (UniProt Q8NBN3)
inactive: [1] 0.001 | vorinostat 0.074 | silmitasertib 0.007 | [2] -0.013 | entospletinib 0.029

TMEM97 (UniProt Q5BJF2)
inactive: [1] -0.016 | vorinostat 0.152 | silmitasertib -0.039 | [2] 0.071 | entospletinib 0.004

TMEM230 isoform 2 (UniProt Q96A57)
inactive: [1] 0.066 | vorinostat -0.028 | silmitasertib -0.021 | [2] -0.03 | entospletinib 0.015

TPM1 isoform 4 (UniProt P09493)
inactive: [1] -0.053 | vorinostat 0.052 | silmitasertib -0.03 | [2] -0.041 | entospletinib 0.006

TMEM245 (UniProt Q9H330)
inactive: [1] 0.012 | vorinostat 0.089 | silmitasertib -0.006 | [2] -0.005 | entospletinib -0.052

TMOD3 (UniProt Q9NYL9)
inactive: [1] 0.004 | vorinostat -0.002 | silmitasertib 0.026 | [2] 0.016 | entospletinib 0

TPRKB (UniProt Q9Y3C4)
inactive: [1] 0.015 | vorinostat 0.074 | silmitasertib -0.015 | [2] -0.008 | entospletinib -0.017

TOMM22 (UniProt Q9NS69)
inactive: [1] -0.025 | vorinostat 0.181 | silmitasertib -0.055 | [2] 0.005 | entospletinib -0.068

TPBG (UniProt Q13641)
inactive: [1] 0.146 | vorinostat 0.135 | silmitasertib -0.055 | [2] 0.092 | entospletinib -0.087

TNFRSF8 (UniProt P28908)
inactive: [1] 0.074 | vorinostat 0.065 | silmitasertib -0.005 | [2] -0.05 | entospletinib -0.012

Source: the supplement of paper PMC10849652
